# Assay results published in PubChem BioAssay AID2685 (National Center for Advancing Translational Sciences (NCATS), 2010).
# Some of the results follow. Shown are side measurements of this screen, not its main read-out; they come without a call. The list favours compounds with an active or inconclusive main result. Words in brackets tell the shape of the fitted curve; partial curves, single points and poor fits give uncertain potencies.
# Experiment: qHTS Assay for Lipid Storage Modulators in Drosophila S3 Cells;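 for cell number change: cells counted by Cell Tracker Red CMTPX staining in the red channel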
# Details: BODIPY lipid droplet fluorescence, 18-24 h; for cell number change: measured here: cell count max response, cells fed with added oleic acid
# In short: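 Laser-scanning cytometry quantifies lipid droplet accumulation (500–530 nm total intensity; droplet/cell object ratio) in oleic acid-fed (400 uM added) Drosophila S3 cells treated with a concentration series. 20 uM Triacsin C defined 100% inhibition.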
# [1] = measured here: cell number channel AC50, cells fed with added oleic acid
# [2] = measured here: lipid fluorescence (Fed channel) AC50, cells fed with added oleic acid
SMILES,AC50 [1],AC50 [2],cell number change
O=C(NCCOc1ccccc1)C1CCC(=O)N(C2CCCCCC2)C1 (configuration not stated),"2.06 µM [falling, partial curve]","29.1 µM [falling, single point]",
CC(CCc1ccco1)NC(=O)CSc1cc(=O)n(C)c2ccccc12 (configuration not stated),"6.51 µM [rising, partial curve, poor fit]","11.6 µM [rising, partial curve, poor fit]",42%
Cc1c(/C=N/NC(=O)C(C)(C)Oc2ccc(Cl)cc2)cnn1C,"0.291 µM [falling, full curve, poor fit]",,0.155%
Cc1nn(C)c(Cl)c1NC(=O)OCc1ccc(Cl)cc1Cl,,"18.4 µM [falling, single point]",-22%
Cc1ccc(C)c(N=Cc2c(O)c3ccccc3oc2=O)c1,,,-4.4%
Cc1ccc(C)c(CSc2nnc(-c3ccccn3)n2N)c1,,,-28.8%
Clc1ccc(-c2nnc(COc3ncnc4ccccc34)o2)cc1,"29.1 µM [rising, single point]","29.1 µM [rising, single point]",53.1%
CC(C)C(=O)N1CCN(c2ccccc2NC(=S)NC(=O)c2cccs2)CC1,,"29.1 µM [falling, partial curve]",14.5%
O=C(COC(=O)c1cc([N+](=O)[O-])ccc1N1CCOCC1)Nc1cccc(F)c1,,,-12.4%
CC(C)(C)CC(=O)NCCCCCCNC(=O)CC(C)(C)C,"29.1 µM [rising, single point]",,37.4%
CCN1CCN(Cc2ccc(NC(=O)c3cc(NC(=O)c4cncc(-c5ccc(C#N)cc5)c4)cc(OC)c3)cc2C(F)(F)F)CC1,"14.6 µM [falling, partial curve]","18.4 µM [falling, partial curve]",-68.7%
O=C(NCc1ccc2c(c1)OCO2)c1ccc2c(c1)N(Cc1c(F)cccc1Cl)C(=O)CS2,,"0.461 µM [rising, full curve]",-13.9%
CCCc1nnc(SCC(=O)Nc2cccc(C(F)(F)F)c2)o1,,"0.116 µM [rising, full curve, poor fit]",19.7%
CCCCSc1nc(C)c(CC(=O)O)c(=O)[nH]1,,"0.92 µM [falling, full curve]",0.696%
O=C(N(c1ccccn1)c1ccccn1)C12CC3CC(CC(C3)C1)C2,,"29.1 µM [falling, partial curve, poor fit]",-28.7%
CCOc1ccc(-c2nnc(-c3cccnc3)o2)cc1OCC,,"0.00461 µM [rising, full curve, poor fit]",-9.79%

# Reformatted bar-delimited: two of the compounds above.
SMILES | AC50 [1] | AC50 [2] | cell number change
O=C(COC(=O)c1cc([N+](=O)[O-])ccc1N1CCOCC1)Nc1cccc(F)c1 |  |  | -12.4%
CC(C)(C)CC(=O)NCCCCCCNC(=O)CC(C)(C)C | 29.1 µM [rising, single point] |  | 37.4%
